PubChem BioAssay AID2685 (National Center for Advancing Translational Sciences (NCATS), 2010)
This is one part of the list. Further columns of the screen follow, without active or inactive calls. Compounds called inactive in the main read-out are mostly missing here. Words in brackets tell the shape of the fitted curve; partial curves, single points and poor fits give uncertain potencies.

Assay: qHTS Assay for Lipid Storage Modulators in Drosophila S3 Cells;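 as to cell number change: cells counted by Cell Tracker Red CMTPX staining in the red channel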
Settings: BODIPY lipid droplet fluorescence, 18-24 h; for cell number change: measured here: cell count max response, cells fed with added oleic acid
Outline: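 Drosophila S3 cells loaded with oleic acid (400 uM, as added) and compounds at several concentrations; lipid droplets imaged by 488-nm laser-scanning cytometry, 500–530 nm intensity and object ratio to cell channel. Percent activity normalized to 20 uM Triacsin C.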

[1] = measured here: cell number channel AC50, cells fed with added oleic acid
[2] = measured here: lipid fluorescence (Fed channel) AC50, cells fed with added oleic acid

SMILES | cell number change | AC50 [1] | AC50 [2]
N=c1c2c3c(sc2ncn1Cc1ccco1)CCCCC3 | 11.2% | 0.651 µM [rising, partial curve, poor fit] | –
CC(=O)c1ccc(S(=O)(=O)Nc2cccc(-c3cn4c(n3)SCC4)c2)cc1 | -10.3% | – | 7.31 µM [falling, single point]
COc1ccc(C(=O)NCC(c2ccco2)N2CCc3ccccc32)cc1OC (stereo not given) | 13.8% | – | 0.058 µM [rising, full curve, poor fit]
O=C(C1CCN(S(=O)(=O)c2ccccc2F)CC1)N1CCc2ccccc21 | 50.7% | 29.1 µM [rising, single point] | 29.1 µM [rising, single point]
COc1ccc(NC(=O)C2CC2)cc1NS(=O)(=O)c1ccc(F)cc1 | – | – | 0.13 µM [rising, full curve, poor fit]
O=S(=O)(Cc1ncc(C(F)(F)F)cc1Cl)c1ccccc1 | -23.9% | 0.447 µM [falling, full curve, poor fit] | –
CN(C)CCNC(=O)/C(=C/c1cccc([N+](=O)[O-])c1)NC(=O)c1ccccc1 | 5.25% | – | 3.66 µM [rising, single point]
Cc1ccc(C)c(C(=O)CN2C(=O)NC3(CCCCCC3)C2=O)c1 | 31.7% | 5.8 µM [rising, partial curve] | –
O=C(Nc1ccc(C2CCCCC2)cc1)C1CCCN(c2ncccn2)C1 (stereo not given) | -7.32% | 6.51 µM [falling, single point] | –
COc1ccc(N(CC(=O)NCCC(C)C)C(=O)c2snc(C(=O)NC3CCCCC3)c2N)c(OC)c1 | 85.5% | 29.1 µM [rising, single point] | 29.1 µM [rising, single point]
O=C(Nc1ccccn1)c1nc(-c2ccccc2)n(-c2ccccc2)n1 | – | – | 1.16 µM [rising, partial curve]
OCC(O)[C@@H](O[C@H]1O[C@H](CO)[C@@H](O)[C@H](O)[C@H]1O)[C@H](O)[C@@H](O)CO (stereo not given in full) | -25.4% | – | 18.4 µM [falling, partial curve, poor fit]
CCOc1ccc(C(=O)NCC(=O)N2CCCC2)cc1 | 18.8% | – | –
Cc1ccc(C(=O)NC2CCCCCC2)o1 | -2.56% | – | 2.31 µM [rising, single point]
Cc1cc(=O)n2nc(N3CCC(C(=O)NCc4ccc(F)cc4)CC3)sc2n1 | -0.885% | – | 4.61 µM [falling, single point]
CCN(CC)CCNC(=O)c1ccc(NC(=O)c2cc(S(=O)(=O)N3CCCCC3)ccc2C)cc1 | 22.1% | – | –
O=C(COC(=O)Cc1ccc(Br)cc1)NC1CCCCC1 | 45.1% | 1.46 µM [rising, full curve] | 6.51 µM [rising, single point]
Cc1cc(NC(=O)c2ccc(NC(=O)C3CCCO3)cc2)ccc1Br (stereo not given) | – | 6.51 µM [rising, single point] | –
CC(C)NC(=O)CC(=O)N/N=C/c1ccc(F)cc1 | 23.6% | – | 18.4 µM [rising, single point]
CCCOC(=O)c1ccc(NC(=O)C(CC)CC)cc1 | -11.5% | – | 6.51 µM [falling, single point]

SMILES | cell number change | AC50 [1] | AC50 [2]
Cc1ccc(C)c(NC(=O)CN(C)C(=O)CSC(C)C(=O)Nc2cc(C)on2)c1 (stereo not given) | 10.9% | – | –
CC(C)N(Cc1ccccc1)S(=O)(=O)c1ccc(F)cc1 | -33.2% | 20.6 µM [falling, single point] | 29.1 µM [falling, single point]
CC(C)CC(=O)N1CCN(S(=O)(=O)c2ccc(Cl)cc2)CC1 | -3.45% | – | 0.00517 µM [falling, full curve, poor fit]
O=C(CSc1ncnc2c1nnn2-c1ccc(F)cc1)NCC1CCCO1 (stereo not given) | -10.6% | – | 0.103 µM [falling, full curve, poor fit]
CC(C)(C)NC(=O)NC(=O)CSc1ncccn1 | -3.84% | 0.411 µM [falling, single point] | 0.58 µM [falling, single point]
CCN1CCN(C(=O)CCc2nc3ccccc3c(=O)[nH]2)CC1 | -22% | – | –
CCN(CC(=O)NCc1ccc(Cl)cc1)C(=O)c1ccc(S(=O)(=O)NCc2ccco2)cc1 | -35.5% | 29.1 µM [falling, single point] | –
Cc1ccc(CN2CCN(/N=C/c3ccc(C(=O)O)cc3)CC2)c(C)c1 | -8.92% | – | 20.6 µM [falling, single point]
CCOc1ccc(NC(=O)[C@@H](NC(=O)OCc2ccccc2)[C@@H](C)CC)cc1 | -11.8% | – | –
CCc1nc2cc3sc(CC)nc3cc2s1 | 0.209% | 6.51 µM [falling, single point] | 6.51 µM [falling, single point]
COc1ccc(C(C(=O)NC2CCCC2)N(C(=O)c2snc(-c3ccc(F)cc3)c2N)c2cccc(F)c2)cc1 (stereo not given) | -115% | 7.31 µM [falling, partial curve] | 7.31 µM [falling, partial curve]
O=C(CSCc1ccc(Cl)cc1)NCc1ccc2c(c1)OCO2 | 14.8% | 6.51 µM [rising, single point] | –
Cc1ccc(-c2cc(-c3ccc(F)cc3)c(C#N)c(N)n2)o1 | 0.658% | – | 0.731 µM [rising, full curve, poor fit]
COc1ccc(CNS(=O)(=O)c2ccc(-c3cnc(C4CC4)o3)cc2)cc1 | -13.9% | – | 0.58 µM [rising, single point]
CN1C(=O)c2ccccc2N(C)C1c1cccc(O)c1 (stereo not given) | 12.4% | – | 29.1 µM [rising, single point]
Cc1ccc(S(=O)(=O)N2CCOCC2)cc1NC(=O)Cn1cc(C(F)(F)F)cc(Cl)c1=O | -32.6% | 16.4 µM [falling, partial curve] | –
Cc1cc(C)c(S(=O)(=O)c2ccccc2)c(N2CCOCC2)n1 | -30.4% | – | –
CCOC(=O)CCSc1nnc(-c2cccnc2)n1-c1ccccc1OC | 12.6% | – | –
Cc1ccnc(N2CCCC(C(=O)Nc3cc(F)ccc3C)C2)n1 (stereo not given) | 19.6% | – | 0.058 µM [rising, full curve, poor fit]

Part of the list above in order of molecular weight, ascending.
SMILES | cell number change | AC50 [1] | AC50 [2]
Cc1ccc(C(=O)NC2CCCCCC2)o1 | -2.56% | – | 2.31 µM [rising, single point]
Cc1ccc(C)c(C(=O)CN2C(=O)NC3(CCCCCC3)C2=O)c1 | 31.7% | 5.8 µM [rising, partial curve] | –
CCN(CC(=O)NCc1ccc(Cl)cc1)C(=O)c1ccc(S(=O)(=O)NCc2ccco2)cc1 | -35.5% | 29.1 µM [falling, single point] | –
